Consider 2 molecules from PMC5533735.

Amino acid sequences for entries named in this document (tags omitted). A change or cut given only in a name is not applied to a line headed by its entry.
UniProt Q9VMD4: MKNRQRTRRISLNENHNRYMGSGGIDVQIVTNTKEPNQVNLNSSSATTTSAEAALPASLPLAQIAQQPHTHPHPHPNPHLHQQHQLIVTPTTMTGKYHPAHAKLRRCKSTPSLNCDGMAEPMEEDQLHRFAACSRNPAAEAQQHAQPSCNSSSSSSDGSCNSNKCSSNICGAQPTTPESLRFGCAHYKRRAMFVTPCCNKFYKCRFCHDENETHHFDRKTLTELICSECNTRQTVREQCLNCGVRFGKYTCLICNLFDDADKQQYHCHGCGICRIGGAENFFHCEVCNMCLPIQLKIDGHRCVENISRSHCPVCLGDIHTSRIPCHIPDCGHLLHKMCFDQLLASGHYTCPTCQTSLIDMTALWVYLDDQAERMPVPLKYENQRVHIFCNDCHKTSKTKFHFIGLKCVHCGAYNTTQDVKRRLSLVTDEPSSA

Experiment [1] deals with T1, cyclin dependent kinase 9 (cdk9) (Drosophila melanogaster (endogenous in whole flies)) (UniProt O17432).
T1 sequence: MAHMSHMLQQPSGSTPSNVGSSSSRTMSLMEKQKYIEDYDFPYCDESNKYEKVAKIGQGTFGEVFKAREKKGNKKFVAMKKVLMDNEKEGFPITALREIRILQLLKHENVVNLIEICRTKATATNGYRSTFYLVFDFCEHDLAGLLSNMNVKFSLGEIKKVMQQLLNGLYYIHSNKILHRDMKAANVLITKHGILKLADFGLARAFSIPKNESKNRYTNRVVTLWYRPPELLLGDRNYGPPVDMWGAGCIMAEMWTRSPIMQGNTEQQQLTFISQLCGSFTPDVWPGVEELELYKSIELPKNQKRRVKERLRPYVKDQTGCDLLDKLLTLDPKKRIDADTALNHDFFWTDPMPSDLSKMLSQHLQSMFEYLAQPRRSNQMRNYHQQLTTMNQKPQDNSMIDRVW
Kind of experiment: co-IP; anti-cdk9 (mouse) with whole-fly lysate (Repo-Gal4 > UAS-GFP and Repo-Gal4 > UAS-CG16947) in RIPA buffer with 10 µM MG132 throughout lysis and co-immunoprecipitation, Protein A Sepharose; blot probed with anti-CG16947.

Experiment [2] deals with CG16947 (Drosophila melanogaster) (UniProt Q9VMD4). Kind of experiment: co-IP; anti-CG16947 (rabbit) with 2.5 mg of whole-fly lysate (1d post-eclosion; Repo-Gal4 > UAS-GFP and Repo-Gal4 > UAS-CG16947) in RIPA buffer overnight at 4 °C, Protein A Sepharose, elution with SDS loading buffer without DTT; blot probed with anti-cdk9.

No constants are given. Whether binding was seen depends on the method and setting. Binding seen in cells or lysates may run through a third protein. Binding can be weak; no strength is given.

On to CG16947 (from UniProt Q9VMD4), for which the binding entry in experiment [1] is “binds”.

B1: cyclin dependent kinase 9 (cdk9) (protein, UniProt O17432 1-404)
chain: T1 sequence
Consider B1, for which the binding result in experiment [2] was “binds”.
